Binding data for 1 molecule are collected here from paper doi:10.1101/2023.10.02.560568.

Protein sequences, listed by entry. Tags and fused reporters are not part of them.
UniProt Q9NX07: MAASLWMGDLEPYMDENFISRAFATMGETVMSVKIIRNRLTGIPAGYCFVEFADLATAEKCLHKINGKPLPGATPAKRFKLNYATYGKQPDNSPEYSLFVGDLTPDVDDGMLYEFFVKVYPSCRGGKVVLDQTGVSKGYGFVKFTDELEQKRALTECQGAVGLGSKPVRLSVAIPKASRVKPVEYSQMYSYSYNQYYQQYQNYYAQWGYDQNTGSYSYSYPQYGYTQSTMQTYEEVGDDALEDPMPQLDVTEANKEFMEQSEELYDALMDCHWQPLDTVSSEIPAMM

Results are given in words; binding and its absence hold for the method and conditions named. In cells and extracts the contact can be indirect. Some binding calls cover weakened binding; strength is not graded here. Sequences can lack the tags named with a protein.

In experiment [1] the target is T1, selenocysteine-specific elongation factor EEFSEC (UniProt P57772).
T1 sequence: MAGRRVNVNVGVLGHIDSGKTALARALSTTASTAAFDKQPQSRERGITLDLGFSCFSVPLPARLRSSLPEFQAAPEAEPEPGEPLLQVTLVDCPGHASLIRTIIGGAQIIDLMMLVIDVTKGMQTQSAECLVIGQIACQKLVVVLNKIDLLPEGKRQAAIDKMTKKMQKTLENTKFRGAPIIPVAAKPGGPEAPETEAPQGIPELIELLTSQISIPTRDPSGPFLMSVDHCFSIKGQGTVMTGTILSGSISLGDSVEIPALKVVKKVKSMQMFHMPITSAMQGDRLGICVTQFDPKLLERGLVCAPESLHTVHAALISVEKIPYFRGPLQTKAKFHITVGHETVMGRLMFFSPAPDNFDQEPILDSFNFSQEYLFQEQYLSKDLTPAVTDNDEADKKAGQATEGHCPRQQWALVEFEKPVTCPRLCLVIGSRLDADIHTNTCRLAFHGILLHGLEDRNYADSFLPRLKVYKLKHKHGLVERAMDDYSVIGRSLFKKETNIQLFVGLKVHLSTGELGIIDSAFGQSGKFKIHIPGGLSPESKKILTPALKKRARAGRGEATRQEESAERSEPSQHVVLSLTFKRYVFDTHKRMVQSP
The experiment in a line: co-IP.

Experiment [2] deals with SECp43 (UniProt Q9NX07). The experiment in a line: co-IP.

B1: FTSJ1 (tagged, overexpressed) (enzyme, UniProt Q9UET6 1-329)
chain: MGRTSKDKRDVYYRLAKENGWRARSAFKLLQLDKEFQLFQGVTRAVDLCAAPGSWSQVLSQKIGGQGSGHVVAVDLQAMAPLPGVVQIQGDITQLSTAKEIIQHFKGCPADLVVCDGAPDVTGLHDVDEYMQAQLLLAALNIATHVLKPGGCFVAKIFRGRDVTLLYSQLQVFFSSVLCAKPRSSRNSSIEAFAVCQGYDPPEGFIPDLSKPLLDHSYDPDFNQLDGPTRIIVPFVTCGDLSSYDSDRSYPLDLEGGSEYKYTPPTQPPISPPYQEACTLKRKGQLAKEIRPQDCPISRVDTFPQPLAAPQCHTLLAPEMEDNEMSCSP
As for B1, the binding entry in experiment [1] and in experiment [2] was “binds” in each case.
